Results published in paper PMC6389991.
No constants are given. Whether binding was seen depends on the method and setting. Some results given as binding are weak or reduced against the parent protein; the word gives no strength.

Molecular target: malate dehydrogenase (MDH), denatured (UniProt P00346)
Assay: cross-linking; glutaraldehyde; ~60 µg proteins in 50 mM sodium phosphate pH 8, 100 mM NaCl with or without ATP and MgCl2 (2 mM each), 37 °C; SDS-PAGE; MDH denatured at 48 °C; both purified

B1: malate dehydrogenase (MDH), denatured (enzyme, UniProt P00346 25-338)
chain: AKVAVLGASGGIGQPLSLLLKNSPLVSRLTLYDIAHTPGVAADLSHIETRATVKGYLGPEQLPDCLKGCDVVVIPAGVPRKPGMTRDDLFNTNATIVATLTAACAQHCPDAMICIISNPVNSTIPITAEVFKKHGVYNPNKIFGVTTLDIVRANAFVAELKGLDPARVSVPVIGGHAGKTIIPLISQCTPKVDFPQDQLSTLTGRIQEAGTEVVKAKAGAGSATLSMAYAGARFVFSLVDAMNGKEGVVECSFVKSQETDCPYFSTPLLLGKKGIEKNLGIGKISPFEEKMIAEAIPELKASIKKGEEFVKNMK
  binding: binds
